Tested on: M200 filaments
Assay: Stopped-flow turbidity, dissociation of M200 filaments on NaCl jump or dilution
Assay type: biochemical, human
Settings: NaCl jump
Description: Fig. 9 Dissociation of M200 filaments by S100A4. (a) Initially, M200 was added (i) from a concentrated stock in 0.5 M NaCl to give a final concentration of 5 μM M200 (with respect to the polypeptide chain) in 100 mM NaCl, 10 mM Hepes, and 0.1 mM Ca^2+ at pH 7.5 and 20 °C. A biphasic rise in turbidity was recorded for 200 s (continuous line). Then 10 μM S100A4 (with respect to monomer concentration) was added (ii), followed by 0.2 mM EGTA (iii) and 1 mM Ca^2+ (iv). […] (b) M200 was diluted (i) into 100 mM NaCl to form filaments as in (a), then 5 μM S100A4 was added (ii), causing a 54% drop in turbidity. A further 5 μM S100A4 (iii) caused turbidity to fall to almost zero. (c) Stopped-flow records monitoring the dissociation of 5 μM M200 filaments on jumping [NaCl] from 100 mM to 120 mM NaCl. Other components of the buffer were 20 mM Hepes, 1 mM Mg^2+, and 100 μM Ca^2+ at pH 7.5 and 20 °C. […] In the presence of 20 μM S100A4 (lower trace), the turbidity decreased by 87% with a rate constant of 0.2 s^− 1.
It is of interest to know whether S100A4 drives depolymerisation solely by binding to free M monomer and allowing the polymer equilibrium to readjust (i.e., via k− 4 and k5), or whether S100A4 also binds to the filament bundle and actively depolymerises an M200 unit (via k6 and k− 7). […] In an attempt to address this question, the dissociation rate of the M200 filament was followed on jumping the NaCl concentration from 100 mM to 120 mM in the absence and in the presence of S100A4 (Fig. 9c). Under these conditions in the absence of S100A4, turbidity dropped to about 50% of its initial value with a profile fitted to a double exponential (k1obs = 0.33 s^− 1 with 12% amplitude and k2obs = 0.037 s^− 1 with 43% amplitude, relative to the total amplitude expected for a full dissociation). Therefore, at the end point of this reaction, the filament concentration decreased by about 2-fold (turbidity is proportional to concentration over this range; Fig. S5b). There should also be a corresponding rise in M200 monomer concentration, but this may be less than accounted for by the loss of filaments if the drop in turbidity was also associated with a rise in small M200 oligomers with a lower specific turbidity. […]

B1: M200: His-tagged human NM-MHC IIA residues Q1761-E1960, V1913I substitution (protein, UniProt P35579 1761-1960, looked up, variant V1913I)
chain: QINTDLNLERSHAQKNENARQQLERQNKELKVKLQEMEGTVKSKYKASITALEAKIAQLEEQLDNETKERQAACKQVRRTEKKLKDVLLQVDDERRNAEQYKDQADKASTRLKQLKRQLEEAEEEAQRANASRRKLQRELEDATETADAMNREISSLKNKLRRGDLPFVVPRRMARKGAGDGSDEEVDGKADGAEAKPAE
modifications: His tag
notes: His-tagged human NM-MHC IIA residues Q1761-E1960, V1913I substitution
fast amplitude, no S100A4 (fraction of observed change): 22%
slow amplitude, no S100A4 (fraction of observed change): 78%
fast amplitude relative to full dissociation (no S100A4): 12%
slow amplitude relative to full dissociation (no S100A4): 43%

Source: paper PMC3025356, “Mechanism of the Ca^2+-Dependent Interaction between S100A4 and Tail Fragments of Nonmuscle Myosin Heavy Chain IIA” (Journal of Molecular Biology, 2011)
